The other results are listed elsewhere or left out.
Legend:
Assay in all cases: log2 fold change, soluble protein after heating vs DMSO (PISA); higher = thermal stabilisation; K562 lysate, 10 uM; active = over 0.2 and 3.5 SD of the protein, either way, in both replicates (recomputed)
[1] = compound: C1=CC=C(C=C1)[C@H](COC2=CC3=C(C=C2)NC(=O)N3)NC(=O)C4=CC=CN(C4=O)CC5=CC(=C(C=C5)F)F
Summary of the method: (§1)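 Soluble protein was defined as the supernatant remaining after 21,000xg for 90 min, following pooling of heated aliquots and adjustment to 0.5% NP-40 at 4°C. Before that, crude K562 extract at 1 mg/mL protein in PBS pH 7.4 with 1 mM MgCl2 was treated with 10 μM compound for 30 min and heated for 3 min across 48°C-58°C. Quantification used TMTpro 16plex LC-MS/MS with channel sums equalised, and values are log-two fold changes in thermal stability relative to solvent controls from duplicates.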

Sequences of proteins named here, by UniProt entry; tags and fusion partners are left off. A change or cut given only in a name is not applied to a line headed by its entry.
UniProt Q9Y5B8, whole entry, looked up: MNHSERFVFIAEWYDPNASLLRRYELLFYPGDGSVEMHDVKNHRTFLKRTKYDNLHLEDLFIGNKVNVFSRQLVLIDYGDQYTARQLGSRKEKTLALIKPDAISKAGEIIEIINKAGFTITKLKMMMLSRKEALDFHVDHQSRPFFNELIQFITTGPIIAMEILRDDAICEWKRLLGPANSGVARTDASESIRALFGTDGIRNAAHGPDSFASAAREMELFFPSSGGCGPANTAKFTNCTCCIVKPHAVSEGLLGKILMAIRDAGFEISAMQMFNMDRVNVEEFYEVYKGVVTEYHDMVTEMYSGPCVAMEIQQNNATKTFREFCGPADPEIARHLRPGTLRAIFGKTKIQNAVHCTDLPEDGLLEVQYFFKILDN
UniProt Q9HBL8: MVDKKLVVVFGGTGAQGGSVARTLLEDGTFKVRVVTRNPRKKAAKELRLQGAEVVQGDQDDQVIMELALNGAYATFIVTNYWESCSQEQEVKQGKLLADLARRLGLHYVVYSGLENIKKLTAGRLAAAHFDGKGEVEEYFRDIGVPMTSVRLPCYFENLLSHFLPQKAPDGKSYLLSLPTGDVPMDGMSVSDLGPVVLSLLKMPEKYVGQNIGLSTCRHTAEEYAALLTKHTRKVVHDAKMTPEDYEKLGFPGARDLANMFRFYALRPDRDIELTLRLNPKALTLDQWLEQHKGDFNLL
UniProt P49790, whole entry, looked up: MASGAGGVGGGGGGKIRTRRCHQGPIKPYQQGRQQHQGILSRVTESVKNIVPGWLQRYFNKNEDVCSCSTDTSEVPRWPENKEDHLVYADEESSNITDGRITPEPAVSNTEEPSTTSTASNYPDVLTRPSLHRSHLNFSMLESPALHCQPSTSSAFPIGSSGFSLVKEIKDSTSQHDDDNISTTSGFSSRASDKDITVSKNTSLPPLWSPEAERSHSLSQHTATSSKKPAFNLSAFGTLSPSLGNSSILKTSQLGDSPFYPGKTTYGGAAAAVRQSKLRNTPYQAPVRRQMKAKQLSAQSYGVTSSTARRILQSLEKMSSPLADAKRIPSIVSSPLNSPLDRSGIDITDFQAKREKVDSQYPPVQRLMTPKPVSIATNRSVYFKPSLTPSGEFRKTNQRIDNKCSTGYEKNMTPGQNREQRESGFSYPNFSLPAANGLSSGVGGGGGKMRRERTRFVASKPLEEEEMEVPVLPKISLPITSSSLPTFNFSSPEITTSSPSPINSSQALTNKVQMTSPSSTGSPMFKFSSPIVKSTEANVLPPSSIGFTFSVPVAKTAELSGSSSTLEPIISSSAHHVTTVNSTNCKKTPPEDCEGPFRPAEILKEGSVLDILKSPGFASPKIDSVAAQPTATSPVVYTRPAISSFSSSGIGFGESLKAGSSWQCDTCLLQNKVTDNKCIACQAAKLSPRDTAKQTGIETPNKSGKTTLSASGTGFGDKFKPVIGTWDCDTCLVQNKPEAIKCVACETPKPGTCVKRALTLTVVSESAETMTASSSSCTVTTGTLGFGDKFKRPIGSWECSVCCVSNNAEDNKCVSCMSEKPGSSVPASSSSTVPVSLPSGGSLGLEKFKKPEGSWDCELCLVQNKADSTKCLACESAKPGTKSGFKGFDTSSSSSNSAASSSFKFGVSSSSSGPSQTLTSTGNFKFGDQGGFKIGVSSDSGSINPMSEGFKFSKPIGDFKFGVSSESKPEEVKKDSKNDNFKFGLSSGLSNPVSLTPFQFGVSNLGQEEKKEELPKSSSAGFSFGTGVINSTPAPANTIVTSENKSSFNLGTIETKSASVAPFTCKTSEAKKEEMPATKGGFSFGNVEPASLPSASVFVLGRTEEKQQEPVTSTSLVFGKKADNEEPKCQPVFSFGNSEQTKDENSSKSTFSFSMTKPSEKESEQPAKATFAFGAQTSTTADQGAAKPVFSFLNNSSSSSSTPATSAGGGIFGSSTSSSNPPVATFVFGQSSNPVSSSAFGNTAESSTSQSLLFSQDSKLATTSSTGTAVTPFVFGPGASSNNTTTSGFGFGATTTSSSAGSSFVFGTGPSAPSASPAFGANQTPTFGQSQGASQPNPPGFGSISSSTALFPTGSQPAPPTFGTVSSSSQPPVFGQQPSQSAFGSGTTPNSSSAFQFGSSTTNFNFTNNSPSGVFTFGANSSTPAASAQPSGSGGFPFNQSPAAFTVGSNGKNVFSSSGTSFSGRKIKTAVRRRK
UniProt Q5SY16: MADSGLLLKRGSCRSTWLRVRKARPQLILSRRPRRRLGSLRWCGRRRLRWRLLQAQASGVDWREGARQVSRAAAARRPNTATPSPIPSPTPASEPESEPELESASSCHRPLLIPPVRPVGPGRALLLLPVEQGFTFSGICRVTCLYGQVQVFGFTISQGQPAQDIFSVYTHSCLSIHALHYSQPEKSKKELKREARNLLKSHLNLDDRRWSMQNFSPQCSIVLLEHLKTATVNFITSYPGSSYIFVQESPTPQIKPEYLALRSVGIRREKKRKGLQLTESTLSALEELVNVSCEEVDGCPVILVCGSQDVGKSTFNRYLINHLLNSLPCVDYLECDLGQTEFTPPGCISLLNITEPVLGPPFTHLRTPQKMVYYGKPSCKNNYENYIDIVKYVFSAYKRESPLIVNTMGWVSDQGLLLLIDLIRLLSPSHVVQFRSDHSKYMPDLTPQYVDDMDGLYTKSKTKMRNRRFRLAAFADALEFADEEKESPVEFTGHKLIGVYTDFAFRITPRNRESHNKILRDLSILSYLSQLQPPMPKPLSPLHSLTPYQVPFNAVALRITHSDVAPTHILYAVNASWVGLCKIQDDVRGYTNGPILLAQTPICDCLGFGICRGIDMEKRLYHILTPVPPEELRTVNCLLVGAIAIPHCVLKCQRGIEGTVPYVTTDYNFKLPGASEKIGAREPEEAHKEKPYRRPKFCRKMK
UniProt Q9Y266: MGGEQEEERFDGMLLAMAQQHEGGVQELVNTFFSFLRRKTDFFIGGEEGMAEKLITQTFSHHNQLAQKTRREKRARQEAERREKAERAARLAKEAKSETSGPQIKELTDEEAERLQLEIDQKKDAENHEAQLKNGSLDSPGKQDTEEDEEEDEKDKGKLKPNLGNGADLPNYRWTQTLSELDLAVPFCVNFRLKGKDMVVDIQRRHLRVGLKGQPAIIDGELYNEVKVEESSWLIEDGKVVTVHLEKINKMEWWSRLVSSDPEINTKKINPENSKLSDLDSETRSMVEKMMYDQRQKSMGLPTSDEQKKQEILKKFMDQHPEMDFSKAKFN
UniProt Q9Y314: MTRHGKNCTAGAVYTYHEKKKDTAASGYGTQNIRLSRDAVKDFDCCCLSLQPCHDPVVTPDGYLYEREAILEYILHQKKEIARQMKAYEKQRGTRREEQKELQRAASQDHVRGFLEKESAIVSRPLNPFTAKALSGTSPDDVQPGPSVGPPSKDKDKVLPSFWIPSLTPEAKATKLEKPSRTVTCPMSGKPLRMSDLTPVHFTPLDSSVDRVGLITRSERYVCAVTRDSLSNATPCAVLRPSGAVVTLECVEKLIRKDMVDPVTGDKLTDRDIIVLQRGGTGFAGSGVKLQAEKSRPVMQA
UniProt P53384: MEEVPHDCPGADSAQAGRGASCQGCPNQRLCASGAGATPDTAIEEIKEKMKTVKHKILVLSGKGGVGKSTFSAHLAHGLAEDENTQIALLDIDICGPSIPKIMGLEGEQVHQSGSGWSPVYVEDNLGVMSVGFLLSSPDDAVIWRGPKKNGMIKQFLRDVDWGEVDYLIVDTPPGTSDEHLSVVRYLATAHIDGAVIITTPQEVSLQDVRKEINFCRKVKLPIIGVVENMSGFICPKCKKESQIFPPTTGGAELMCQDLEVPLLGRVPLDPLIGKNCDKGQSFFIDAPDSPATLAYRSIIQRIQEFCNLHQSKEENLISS

[2] = compound: CC1=C(SC2=C1C(=N[C@H](C3=NN=C(N32)C)CC(=O)N)C4=CC=C(C=C4)Cl)C
Summary of the method: as §1

[3] = compound: CC1=C2C(=CC=C1)N=C(N(C2=O)C3=CC=CC=C3C)CN4C=NC5=C(N=CN=C54)N
Summary of the method: as §1

[4] = compound: Cc1sc2c(c1C)C(c1ccc(Cl)cc1)=N[C@@H](CC(=O)OC(C)(C)C)c1nnc(C)n1-2
Summary of the method: as §1

[5] = compound: c1ccc([C@@H]2C[C@H]2NC2CCNCC2)cc1
Summary of the method: as §1

Measured: log2 fold change

NME7 (UniProt Q9Y5B8)
inactive: [1] -0.037 | [2] -0.073 | [3] 0.015 | [4] 0.029 | [5] 0.032

NMRAL1 (UniProt Q9HBL8)
inactive: [1] -0.09 | [2] 0.049 | [3] 0.009 | [4] -0.071 | [5] -0.027

NUP153 (UniProt P49790)
inactive: [1] 0.022 | [2] -0.019 | [3] 0.01 | [4] 0.009 | [5] -0.004

NOL9 (UniProt Q5SY16)
inactive: [1] -0.024 | [2] 0.046 | [3] -0.037 | [4] 0.033 | [5] 0.048

NUDC (UniProt Q9Y266)
inactive: [1] 0.024 | [2] 0.008 | [3] -0.018 | [4] -0.013 | [5] 0.036

NOSIP (UniProt Q9Y314)
inactive: [1] 0.018 | [2] -0.005 | [3] -0.018 | [4] 0.019 | [5] 0.012

NUBP1 (UniProt P53384)
inactive: [1] 0.019 | [2] -0.008 | [3] -0.021 | [4] 0.037 | [5] 0.035

NOP53 (UniProt Q9NZM5)
inactive: [1] 0.01 | [2] 0.059 | [3] 0.033 | [4] 0.044 | [5] 0.187

NSA2 (UniProt O95478)
inactive: [1] 0.111 | [2] -0.135 | [3] -0.018 | [4] -0.042 | [5] 0.122

— the supplement of paper PMC10849652
